Measurements reported in the supplement of paper PMC10849652.
The other results are listed elsewhere or left out.

Protein sequences, listed by entry. Tags and fused reporters are not part of them. Lines headed by an entry give the natural chain unless they say otherwise; changes in a name come on top.
UniProt P14324: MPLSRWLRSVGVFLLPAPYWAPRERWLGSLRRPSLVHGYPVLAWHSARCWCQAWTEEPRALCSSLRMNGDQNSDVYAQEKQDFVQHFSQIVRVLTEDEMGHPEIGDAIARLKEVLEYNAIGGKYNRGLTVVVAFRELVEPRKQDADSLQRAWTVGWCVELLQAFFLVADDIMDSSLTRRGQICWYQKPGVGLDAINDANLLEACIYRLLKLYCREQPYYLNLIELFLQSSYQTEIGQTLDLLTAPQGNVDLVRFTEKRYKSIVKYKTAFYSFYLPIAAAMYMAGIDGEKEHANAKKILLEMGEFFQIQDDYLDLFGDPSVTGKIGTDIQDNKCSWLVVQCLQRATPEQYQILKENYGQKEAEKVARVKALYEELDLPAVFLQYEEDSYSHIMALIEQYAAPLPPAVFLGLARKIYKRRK
UniProt Q5XUX1: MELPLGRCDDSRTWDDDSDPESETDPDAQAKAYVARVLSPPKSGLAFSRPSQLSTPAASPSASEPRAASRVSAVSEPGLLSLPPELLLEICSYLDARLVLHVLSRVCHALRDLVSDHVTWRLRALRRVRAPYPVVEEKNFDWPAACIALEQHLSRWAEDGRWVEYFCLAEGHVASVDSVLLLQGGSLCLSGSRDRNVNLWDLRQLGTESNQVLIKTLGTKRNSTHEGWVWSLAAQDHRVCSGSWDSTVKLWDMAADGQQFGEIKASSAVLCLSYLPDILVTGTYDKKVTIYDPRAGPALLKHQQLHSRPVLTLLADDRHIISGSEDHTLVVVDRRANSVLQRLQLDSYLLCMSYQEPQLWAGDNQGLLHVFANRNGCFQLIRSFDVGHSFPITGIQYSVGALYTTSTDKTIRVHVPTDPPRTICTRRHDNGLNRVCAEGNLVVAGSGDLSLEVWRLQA
UniProt Q8NFG4: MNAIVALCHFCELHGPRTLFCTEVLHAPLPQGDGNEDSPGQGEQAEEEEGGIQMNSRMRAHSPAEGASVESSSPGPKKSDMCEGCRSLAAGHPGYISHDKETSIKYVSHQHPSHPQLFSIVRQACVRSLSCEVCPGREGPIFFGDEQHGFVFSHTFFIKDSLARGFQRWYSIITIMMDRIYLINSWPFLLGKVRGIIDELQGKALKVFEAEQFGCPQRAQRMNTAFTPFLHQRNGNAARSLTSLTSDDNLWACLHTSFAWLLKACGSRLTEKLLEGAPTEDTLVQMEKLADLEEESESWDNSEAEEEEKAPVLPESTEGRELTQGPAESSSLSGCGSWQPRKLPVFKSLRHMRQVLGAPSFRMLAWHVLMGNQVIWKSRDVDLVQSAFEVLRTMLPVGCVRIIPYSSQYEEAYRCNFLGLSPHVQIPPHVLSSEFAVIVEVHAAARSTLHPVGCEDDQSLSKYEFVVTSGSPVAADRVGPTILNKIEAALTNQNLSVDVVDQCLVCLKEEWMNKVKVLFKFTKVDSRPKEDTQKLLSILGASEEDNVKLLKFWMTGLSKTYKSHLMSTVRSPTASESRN
UniProt Q5T1M5: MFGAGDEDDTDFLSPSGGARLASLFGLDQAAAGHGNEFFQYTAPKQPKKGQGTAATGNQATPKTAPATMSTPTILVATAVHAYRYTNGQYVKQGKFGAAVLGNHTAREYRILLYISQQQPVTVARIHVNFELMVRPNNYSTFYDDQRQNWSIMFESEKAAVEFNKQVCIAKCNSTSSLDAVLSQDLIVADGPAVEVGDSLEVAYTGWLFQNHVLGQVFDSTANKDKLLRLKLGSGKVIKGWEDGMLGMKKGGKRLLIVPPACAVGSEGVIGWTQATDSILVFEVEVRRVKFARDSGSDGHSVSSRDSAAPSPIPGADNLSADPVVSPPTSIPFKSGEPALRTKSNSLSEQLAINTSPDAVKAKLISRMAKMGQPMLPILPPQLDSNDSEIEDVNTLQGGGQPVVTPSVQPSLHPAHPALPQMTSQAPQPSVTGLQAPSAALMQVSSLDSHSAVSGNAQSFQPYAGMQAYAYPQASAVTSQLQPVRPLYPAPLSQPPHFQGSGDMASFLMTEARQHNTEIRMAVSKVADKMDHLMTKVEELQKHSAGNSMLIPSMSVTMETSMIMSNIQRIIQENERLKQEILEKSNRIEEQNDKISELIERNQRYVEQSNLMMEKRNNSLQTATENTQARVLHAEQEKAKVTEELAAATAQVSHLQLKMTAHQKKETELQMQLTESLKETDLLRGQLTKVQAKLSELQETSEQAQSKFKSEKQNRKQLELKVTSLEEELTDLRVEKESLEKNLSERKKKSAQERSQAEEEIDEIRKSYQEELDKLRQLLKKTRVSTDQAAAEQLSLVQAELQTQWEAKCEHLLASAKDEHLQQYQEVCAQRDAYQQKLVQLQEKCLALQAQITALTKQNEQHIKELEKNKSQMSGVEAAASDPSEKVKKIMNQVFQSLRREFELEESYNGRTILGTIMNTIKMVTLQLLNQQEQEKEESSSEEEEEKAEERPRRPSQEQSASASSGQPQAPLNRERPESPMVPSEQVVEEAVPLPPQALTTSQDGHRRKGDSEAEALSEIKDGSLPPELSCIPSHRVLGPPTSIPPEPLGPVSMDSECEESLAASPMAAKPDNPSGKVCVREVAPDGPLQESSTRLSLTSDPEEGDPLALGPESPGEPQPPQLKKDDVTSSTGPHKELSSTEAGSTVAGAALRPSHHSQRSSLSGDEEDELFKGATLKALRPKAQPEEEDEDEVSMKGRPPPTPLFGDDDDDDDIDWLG
UniProt P07954: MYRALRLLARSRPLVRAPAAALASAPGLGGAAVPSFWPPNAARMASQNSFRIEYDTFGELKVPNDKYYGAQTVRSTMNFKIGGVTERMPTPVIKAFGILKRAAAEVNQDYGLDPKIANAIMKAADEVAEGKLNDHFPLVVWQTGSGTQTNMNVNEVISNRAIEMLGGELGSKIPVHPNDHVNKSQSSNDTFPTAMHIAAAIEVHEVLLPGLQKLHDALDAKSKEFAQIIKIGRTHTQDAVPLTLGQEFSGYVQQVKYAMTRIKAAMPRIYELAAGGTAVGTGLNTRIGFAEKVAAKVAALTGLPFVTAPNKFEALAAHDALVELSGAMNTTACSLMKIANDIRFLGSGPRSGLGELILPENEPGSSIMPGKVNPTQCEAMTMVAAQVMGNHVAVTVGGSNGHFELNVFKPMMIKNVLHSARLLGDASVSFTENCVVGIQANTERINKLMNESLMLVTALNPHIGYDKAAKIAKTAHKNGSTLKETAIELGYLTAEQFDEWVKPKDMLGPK
UniProt P39748, whole entry, looked up: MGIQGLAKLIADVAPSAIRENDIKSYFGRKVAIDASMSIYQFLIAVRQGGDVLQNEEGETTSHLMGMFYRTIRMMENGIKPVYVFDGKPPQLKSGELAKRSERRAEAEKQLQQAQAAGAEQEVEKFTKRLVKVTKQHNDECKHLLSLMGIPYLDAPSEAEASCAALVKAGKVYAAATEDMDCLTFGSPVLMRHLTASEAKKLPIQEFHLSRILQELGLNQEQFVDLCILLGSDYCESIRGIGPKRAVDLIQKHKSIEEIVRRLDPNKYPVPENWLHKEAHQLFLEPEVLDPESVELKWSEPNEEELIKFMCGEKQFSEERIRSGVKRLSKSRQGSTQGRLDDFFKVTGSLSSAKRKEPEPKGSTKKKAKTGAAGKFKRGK
UniProt Q14192: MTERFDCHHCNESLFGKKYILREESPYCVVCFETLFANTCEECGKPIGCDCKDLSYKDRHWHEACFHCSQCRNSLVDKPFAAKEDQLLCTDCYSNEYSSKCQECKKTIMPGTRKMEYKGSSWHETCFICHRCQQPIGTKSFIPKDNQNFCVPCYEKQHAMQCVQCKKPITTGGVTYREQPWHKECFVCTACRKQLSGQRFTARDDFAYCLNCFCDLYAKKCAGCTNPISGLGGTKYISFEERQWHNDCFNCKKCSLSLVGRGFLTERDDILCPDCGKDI
UniProt Q6PIJ6: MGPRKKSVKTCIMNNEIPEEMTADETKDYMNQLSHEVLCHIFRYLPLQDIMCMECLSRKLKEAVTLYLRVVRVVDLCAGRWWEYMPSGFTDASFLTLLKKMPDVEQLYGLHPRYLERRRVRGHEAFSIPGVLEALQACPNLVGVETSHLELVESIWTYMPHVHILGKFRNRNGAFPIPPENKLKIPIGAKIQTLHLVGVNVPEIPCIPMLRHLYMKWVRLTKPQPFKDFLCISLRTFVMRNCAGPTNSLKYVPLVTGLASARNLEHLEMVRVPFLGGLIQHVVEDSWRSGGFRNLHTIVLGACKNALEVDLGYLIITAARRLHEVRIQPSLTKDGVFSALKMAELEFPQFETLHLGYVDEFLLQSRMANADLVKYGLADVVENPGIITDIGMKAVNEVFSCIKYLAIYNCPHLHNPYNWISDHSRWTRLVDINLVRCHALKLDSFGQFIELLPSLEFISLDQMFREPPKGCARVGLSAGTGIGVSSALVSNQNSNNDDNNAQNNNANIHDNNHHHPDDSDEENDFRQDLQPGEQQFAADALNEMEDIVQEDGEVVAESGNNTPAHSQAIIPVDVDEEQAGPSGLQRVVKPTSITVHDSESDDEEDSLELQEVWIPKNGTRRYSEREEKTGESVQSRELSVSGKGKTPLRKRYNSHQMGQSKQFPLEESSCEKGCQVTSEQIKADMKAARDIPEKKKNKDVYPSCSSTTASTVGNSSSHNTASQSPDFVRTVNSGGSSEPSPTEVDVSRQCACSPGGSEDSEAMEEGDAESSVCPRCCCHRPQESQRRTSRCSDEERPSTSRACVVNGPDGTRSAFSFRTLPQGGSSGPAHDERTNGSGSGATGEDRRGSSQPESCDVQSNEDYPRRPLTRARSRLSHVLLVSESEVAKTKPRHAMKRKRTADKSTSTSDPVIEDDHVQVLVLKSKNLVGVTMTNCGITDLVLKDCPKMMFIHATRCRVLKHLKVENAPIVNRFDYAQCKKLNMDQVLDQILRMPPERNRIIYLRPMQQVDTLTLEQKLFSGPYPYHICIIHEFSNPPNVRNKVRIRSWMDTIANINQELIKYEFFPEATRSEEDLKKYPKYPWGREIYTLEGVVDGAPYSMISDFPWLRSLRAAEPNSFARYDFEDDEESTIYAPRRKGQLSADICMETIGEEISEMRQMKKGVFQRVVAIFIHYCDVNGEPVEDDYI
UniProt Q13643: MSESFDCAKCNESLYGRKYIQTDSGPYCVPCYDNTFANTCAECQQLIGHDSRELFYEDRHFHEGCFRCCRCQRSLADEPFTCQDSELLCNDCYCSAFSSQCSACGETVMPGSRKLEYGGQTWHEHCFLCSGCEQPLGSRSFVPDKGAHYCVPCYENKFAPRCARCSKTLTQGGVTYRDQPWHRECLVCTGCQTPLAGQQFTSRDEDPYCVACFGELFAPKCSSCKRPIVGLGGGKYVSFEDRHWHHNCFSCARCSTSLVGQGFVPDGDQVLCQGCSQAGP
UniProt Q9UK99: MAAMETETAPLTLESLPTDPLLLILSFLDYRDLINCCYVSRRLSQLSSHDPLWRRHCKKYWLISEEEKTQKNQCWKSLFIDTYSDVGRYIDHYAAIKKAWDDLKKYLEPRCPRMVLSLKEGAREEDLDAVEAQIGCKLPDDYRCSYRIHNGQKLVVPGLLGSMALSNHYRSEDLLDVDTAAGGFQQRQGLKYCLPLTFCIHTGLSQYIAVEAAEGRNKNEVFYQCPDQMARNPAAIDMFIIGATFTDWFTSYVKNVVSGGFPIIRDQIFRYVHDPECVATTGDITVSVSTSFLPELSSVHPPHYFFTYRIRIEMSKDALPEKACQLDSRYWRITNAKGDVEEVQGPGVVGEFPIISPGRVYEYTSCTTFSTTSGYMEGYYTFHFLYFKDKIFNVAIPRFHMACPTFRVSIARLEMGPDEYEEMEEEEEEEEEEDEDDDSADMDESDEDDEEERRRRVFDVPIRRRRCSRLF
UniProt Q86UX7, whole entry, looked up: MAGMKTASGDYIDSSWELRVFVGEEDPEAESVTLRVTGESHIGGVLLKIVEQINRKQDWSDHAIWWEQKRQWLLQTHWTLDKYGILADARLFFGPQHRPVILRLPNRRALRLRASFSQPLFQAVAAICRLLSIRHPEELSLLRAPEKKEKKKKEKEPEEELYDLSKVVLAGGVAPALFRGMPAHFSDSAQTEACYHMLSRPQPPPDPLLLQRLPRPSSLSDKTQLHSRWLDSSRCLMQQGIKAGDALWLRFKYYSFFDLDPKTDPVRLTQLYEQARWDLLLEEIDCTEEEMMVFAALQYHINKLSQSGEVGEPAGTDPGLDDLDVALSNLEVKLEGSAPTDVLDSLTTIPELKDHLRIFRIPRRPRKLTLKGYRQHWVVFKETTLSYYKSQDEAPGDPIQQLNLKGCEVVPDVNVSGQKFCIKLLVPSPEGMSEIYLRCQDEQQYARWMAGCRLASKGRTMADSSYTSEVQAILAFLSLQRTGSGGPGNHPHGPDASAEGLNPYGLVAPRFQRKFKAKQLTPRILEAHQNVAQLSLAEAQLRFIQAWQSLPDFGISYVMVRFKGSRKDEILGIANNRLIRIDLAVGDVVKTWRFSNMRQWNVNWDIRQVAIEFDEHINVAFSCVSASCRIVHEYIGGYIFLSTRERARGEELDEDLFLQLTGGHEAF

What was measured:
Test in all cases: log2 fold change, soluble protein after heating vs DMSO (PISA); higher = thermal stabilisation; K562 lysate, 10 uM; active = over 0.2 and 3.5 SD of the protein, either way, in both replicates (recomputed)
erlotinib = compound: C#Cc1cccc(Nc2ncnc3cc(OCCOC)c(OCCOC)cc23)c1 [erlotinib]
Method in brief: (§1)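 A 30 min treatment with 10 μM compound was applied to crude K562 extract at 1 mg/mL protein in PBS pH 7.4 with 1 mM MgCl2. Heating for 3 min spanned 48°C-58°C, after which aliquots were pooled, adjusted to 0.5% NP-40 at 4°C and spun at 21,000xg for 90 min. TMTpro 16plex LC-MS/MS of the supernatant, with channel sums equalised, gave values recorded as log-two fold change in thermal stability against solvent controls, from duplicates.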

[1] = compound: C/C(=N\NC(=O)C1=CC(=CC=C1)S(=O)(=O)N2CCOCC2)/C3=C(C=CC(=C3)Cl)O
Method in brief: as §1

[2] = compound: C1=CC(=CC=C1C2=NC3=C(N2)C=C(C=C3)C(=O)N)OC4=CC=C(C=C4)Cl
Method in brief: as §1

[3] = compound: C1=CC2=C(C=CC(=C2)/C=C\3/C(=O)NC(=NCC4=CC=CS4)S3)N=C1
Method in brief: as §1

[4] = compound: C1=CC2=NC=CN=C2C=C1/C=C/3\C(=O)NC(=O)S3
Method in brief: as §1

[5] = compound: C1=CC=C(C=C1)C2=NC(=C(N2)C3=CC=NC=C3)C4=CC(=C(C=C4)Cl)O
Method in brief: as §1

[6] = compound: C1=CC=C2C(=C1)C3=NNC4=CC=CC(=C43)C2=O
Method in brief: as §1

[7] = compound: C1CCN(C1)C(=O)NC2=CC=CC(=C2)NC3=NC=C(C(=N3)NCCC4=CN=CN4)Br
Method in brief: as §1

[8] = compound: C1CN(CCC1(CC2=CC=C(C=C2)Cl)N)C3=NC=NC4=C3C=CN4
Method in brief: as §1

IRAK-1-4 Inhibitor I = compound: C1COCCN1CCN2C3=CC=CC=C3N=C2NC(=O)C4=CC(=CC=C4)[N+](=O)[O-] [IRAK-1-4 Inhibitor I]
Method in brief: as §1

ibrutinib = compound: C=CC(=O)N1CCC[C@@H](n2nc(-c3ccc(Oc4ccccc4)cc3)c3c(N)ncnc32)C1 [ibrutinib]
Method in brief: as §1

[9] = compound: CC(=O)c1cnc2ccc(-c3cc(Cl)c(O)c(Cl)c3)nc2c1N[C@H]1CC[C@H](CN(C)C)CC1
Method in brief: as §1

ralimetinib = compound: CC(C)(C)Cn1c(N)nc2ccc(-c3[nH]c(C(C)(C)C)nc3-c3ccc(F)cc3)nc21 [ralimetinib]
Method in brief: as §1

[10] = compound: CC(C)(O)CC(=O)NCCn1ccc2ncnc(Nc3ccc(Oc4cccc(C(F)(F)F)c4)c(Cl)c3)c21
Method in brief: as §1

[11] = compound: CC(C)C1=C2N=C(C=C(N2N=C1)NCC3=CC=CC=C3)NCCCCCCN
Method in brief: as §1

[12] = compound: CC1=C(C(CC(=O)N1)C2=CC=C(C=C2)C(F)(F)F)C(=O)NC3=C(C=C4C(=C3)C=NN4)F
Method in brief: as §1

[13] = compound: CC1=C(C2=C(C=C1)C(=O)C3=CC=CC=C3N2CCCN)C
Method in brief: as §1

[14] = compound: CC1=C(C=C(C=C1)NC(=O)C2=CC(=CC=C2)C(C)(C)C#N)NC3=CC4=C(C=C3)N=CN(C4=O)C
Method in brief: as §1

[15] = compound: CC1=C(C=C(C=C1)NC(=O)C2=CC(=CC=C2)N(C)C)NC(=O)C3=CC=C(C=C3)O
Method in brief: as §1

[16] = compound: CC1=CC=C(C=C1)SC2=C3C=C(SC3=CN=C2)C(=O)N
Method in brief: as §1

Measured: log2 fold change

FKBP9 (UniProt O95302)
inactive: erlotinib -0.048 | [1] 0.018 | [2] 0.011 | [3] 0.029 | [4] 0.003 | [5] -0.008 | [6] -0.009 | [7] -0.009 | [8] 0.022 | IRAK-1-4 Inhibitor I -0.027 | ibrutinib 0.062 | [9] -0.002 | ralimetinib 0.036 | [10] -0.011 | [11] -0.004 | [12] 0.006 | [13] 0.025 | [14] -0.023 | [15] 0.024 | [16] -0.039

FDPS (UniProt P14324)
inactive: erlotinib 0.042 | [1] 0.082 | [2] -0.029 | [3] 0.025 | [4] -0.006 | [5] 0.001 | [6] 0 | [7] 0.001 | [8] 0.019 | IRAK-1-4 Inhibitor I 0.051 | ibrutinib 0.005 | [9] 0.016 | ralimetinib -0.008 | [10] -0.01 | [11] 0.004 | [12] -0.046 | [13] 0.023 | [14] 0.04 | [15] 0.045 | [16] 0.032

FBXW9 (UniProt Q5XUX1)
inactive: erlotinib 0.001 | [1] 0.023 | [2] 0.003 | [3] -0.023 | [4] -0.016 | [5] 0 | [6] -0.018 | [7] -0.025 | [8] -0.049 | IRAK-1-4 Inhibitor I 0.006 | ibrutinib -0.023 | [9] 0.008 | ralimetinib 0.01 | [10] -0.05 | [11] -0.027 | [12] -0.034 | [13] -0.009 | [14] 0.049 | [15] 0.054 | [16] -0.03

FLCN (UniProt Q8NFG4)
inactive: erlotinib 0.02 | [1] -0.011 | [2] 0.086 | [3] -0.002 | [4] -0.028 | [5] 0.017 | [6] -0.028 | [7] 0.034 | [8] -0.038 | IRAK-1-4 Inhibitor I 0.06 | ibrutinib 0.033 | [9] -0.01 | ralimetinib 0.051 | [10] -0.113 | [11] -0.061 | [12] 0.002 | [13] 0.001 | [14] 0.055 | [15] -0.016 | [16] -0.053

FKBP15 (UniProt Q5T1M5)
inactive: erlotinib 0.039 | [1] 0.008 | [2] 0.017 | [3] 0.016 | [4] -0.017 | [5] 0.001 | [6] 0.023 | [7] 0.021 | [8] -0.004 | IRAK-1-4 Inhibitor I 0.009 | ibrutinib 0.001 | [9] -0.032 | ralimetinib 0.013 | [10] -0.062 | [11] 0.003 | [12] 0.02 | [13] -0.01 | [14] 0.014 | [15] 0.032 | [16] -0.016

Pulled one by one from the entries so far (2):
FLCN (UniProt Q8NFG4)
inactive: erlotinib 0.02 | [1] -0.011 | [2] 0.086 | [3] -0.002 | [4] -0.028 | [5] 0.017 | [6] -0.028 | [7] 0.034 | [8] -0.038 | IRAK-1-4 Inhibitor I 0.06 | ibrutinib 0.033 | [9] -0.01 | ralimetinib 0.051 | [10] -0.113 | [11] -0.061 | [12] 0.002 | [13] 0.001 | [14] 0.055 | [15] -0.016 | [16] -0.053

FKBP15 (UniProt Q5T1M5)
inactive: erlotinib 0.039 | [1] 0.008 | [2] 0.017 | [3] 0.016 | [4] -0.017 | [5] 0.001 | [6] 0.023 | [7] 0.021 | [8] -0.004 | IRAK-1-4 Inhibitor I 0.009 | ibrutinib 0.001 | [9] -0.032 | ralimetinib 0.013 | [10] -0.062 | [11] 0.003 | [12] 0.02 | [13] -0.01 | [14] 0.014 | [15] 0.032 | [16] -0.016

The results go on.

FH (UniProt P07954)
inactive: erlotinib -0.008 | [1] 0.055 | [2] -0.008 | [3] 0.033 | [4] 0 | [5] -0.024 | [6] 0.034 | [7] -0.019 | [8] 0.021 | IRAK-1-4 Inhibitor I 0 | ibrutinib -0.003 | [9] 0.008 | ralimetinib -0.026 | [10] -0.005 | [11] -0.011 | [12] -0.036 | [13] 0.029 | [14] -0.002 | [15] 0.005 | [16] 0.008

FLAD1 (UniProt Q8NFF5)
inactive: erlotinib 0.001 | [1] -0.108 | [2] -0.047 | [3] -0.054 | [4] -0.035 | [5] 0.012 | [6] 0.045 | [7] -0.028 | [8] -0.027 | IRAK-1-4 Inhibitor I 0.001 | ibrutinib -0.011 | [9] 0.002 | ralimetinib 0.016 | [10] -0.014 | [11] -0.072 | [12] -0.004 | [13] -0.026 | [14] 0.002 | [15] 0.011 | [16] 0.015

FNTA (UniProt P49354)
inactive: erlotinib -0.044 | [1] 0.046 | [2] -0.052 | [3] -0.014 | [4] 0.021 | [5] 0.054 | [6] 0.027 | [7] -0.012 | [8] -0.011 | IRAK-1-4 Inhibitor I 0.001 | ibrutinib 0.011 | [9] 0.006 | ralimetinib -0.031 | [10] -0.006 | [11] -0.021 | [12] 0.016 | [13] -0.006 | [14] 0.049 | [15] -0.014 | [16] 0.012

FEN1 (UniProt P39748)
inactive: erlotinib -0.025 | [1] 0.022 | [2] -0.06 | [3] 0.018 | [4] -0.005 | [5] -0.027 | [6] 0.013 | [7] -0.005 | [8] -0.016 | IRAK-1-4 Inhibitor I 0.033 | ibrutinib 0.025 | [9] 0.026 | ralimetinib 0.063 | [10] -0.034 | [11] 0.022 | [12] -0.016 | [13] 0.022 | [14] 0.002 | [15] 0.022 | [16] 0.039

FHL2 (UniProt Q14192)
inactive: erlotinib 0.005 | [1] -0.009 | [2] 0.07 | [3] -0.014 | [4] -0.015 | [5] -0.053 | [6] -0.008 | [7] -0.035 | [8] -0.005 | IRAK-1-4 Inhibitor I -0.002 | ibrutinib 0.008 | [9] 0 | ralimetinib 0.012 | [10] -0.053 | [11] -0.036 | [12] 0 | [13] -0.013 | [14] 0.18 | [15] 0.004 | [16] 0.002

FBXO38 (UniProt Q6PIJ6)
inactive: erlotinib 0.102 | [1] 0.041 | [2] 0.013 | [3] -0.047 | [4] -0.041 | [5] 0.06 | [6] 0.077 | [7] -0.06 | [8] 0.021 | IRAK-1-4 Inhibitor I -0.052 | ibrutinib -0.042 | [9] 0.063 | ralimetinib 0.083 | [10] 0.009 | [11] -0.078 | [12] -0.037 | [13] -0.073 | [14] -0.098 | [15] 0.009 | [16] 0.175

FHL3 (UniProt Q13643)
inactive: erlotinib -0.001 | [1] -0.032 | [2] 0.011 | [3] 0.007 | [4] -0.002 | [5] 0.018 | [6] 0.087 | [7] 0.003 | [8] -0.016 | IRAK-1-4 Inhibitor I -0.037 | ibrutinib 0.022 | [9] -0.013 | ralimetinib 0.015 | [10] -0.01 | [11] -0.045 | [12] -0.012 | [13] -0.026 | [14] 0.012 | [15] -0.026 | [16] -0.007

FBXO3 (UniProt Q9UK99)
inactive: erlotinib -0.043 | [1] 0.041 | [2] 0.119 | [3] 0.015 | [4] 0.012 | [5] -0.024 | [6] -0.048 | [7] -0.008 | [8] 0.038 | IRAK-1-4 Inhibitor I -0.012 | ibrutinib 0.029 | [9] 0.003 | ralimetinib -0.025 | [10] 0.024 | [11] -0.032 | [12] 0.049 | [13] 0.008 | [14] -0.054 | [15] 0.012 | [16] -0.033

FBXO5 (UniProt Q9UKT4)
inactive: erlotinib -0.042 | [1] -0.06 | [2] 0.048 | [3] -0.054 | [4] -0.098 | [5] 0.021 | [6] 0.035 | [7] -0.026 | [8] 0.001 | IRAK-1-4 Inhibitor I 0.011 | ibrutinib 0.02 | [9] -0.125 | ralimetinib 0.058 | [10] -0.022 | [11] 0.128 | [12] 0.064 | [13] -0.023 | [14] 0.015 | [15] -0.013 | [16] 0.101

FERMT3 (UniProt Q86UX7)
inactive: erlotinib 0.011 | [1] 0.01 | [2] 0.007 | [3] -0.008 | [4] 0 | [5] 0.002 | [6] -0.017 | [7] -0.025 | [8] 0.005 | IRAK-1-4 Inhibitor I 0.008 | ibrutinib -0.008 | [9] -0.011 | ralimetinib 0 | [10] -0.014 | [11] -0.001 | [12] -0.018 | [13] 0 | [14] 0.026 | [15] 0.007 | [16] 0.004

FMR1 (UniProt Q06787)
inactive: erlotinib -0.092 | [1] -0.043 | [2] -0.077 | [3] 0 | [4] 0.078 | [5] -0.015 | [6] 0.201 | [7] 0.003 | [8] 0.044 | IRAK-1-4 Inhibitor I 0 | ibrutinib -0.046 | [9] -0.017 | ralimetinib 0.032 | [10] -0.033 | [11] -0.089 | [12] 0.026 | [13] -0.019 | [14] -0.085 | [15] 0.06 | [16] 0.003
